Data: PubChem BioAssay AID493014 (National Center for Advancing Translational Sciences (NCATS), 2011)
The list shows a part of the results. These are further read-outs of the screen, such as a control signal, another cell line or another target. No call is given for them. The list favours compounds with an active or inconclusive main result. Potencies come from curve fits of mixed quality, noted in brackets.

Test: qHTS Assay to Find Inhibitors of Chronic Active B-Cell Receptor Signaling
Conditions: ABC-DLBCL IkBa-CBG/CBR reporter, luminescence ratio (green luciferase fused to IkBa over red control in TMD8 lymphoma cells), 4 h
Method in brief: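 Concentration-response series (up to 46 uM) were applied to TMD8 dual-reporter cells for 4 h at 37C with doxycycline. Green/red ratio, after filter-overlap correction, defined %Activity; red signal alone was normalised to basal cells and zero luminescence.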

[1] = measured here: CBR red luminescence, cell number
[2] = measured here: IkBa-CBG green luminescence

SMILES	AC50 [1]	AC50 [2]
CCOC(=O)c1ccc(NC(=O)CCNC(=O)c2ccc([N+](=O)[O-])cc2)cc1	23.1 µM [rising, single point]	–
O=C1CC(NCc2ccc3c(c2)OCO3)C(=O)N1CCc1ccccc1 (stereo unspecified)	0.651 µM [rising, full curve, poor fit]	–
COc1ccc(C(C)=O)cc1COc1ccc(-n2cnnn2)cc1	10.3 µM [rising, single point]	–
O=C(c1ccco1)N1CCN(S(=O)(=O)c2ccc([N+](=O)[O-])cc2)CC1	6.31 µM [rising, single point]	–
CC(C)C[C@@H](C(=O)NC1CC1)N1C(=O)N2CCc3c([nH]c4ccccc34)[C@@]2(C)C1=O	4.47 µM [falling, full curve]	–
NS(=O)(=O)c1ccc(NC(=S)NC2CCCCCC2)cc1	1.46 µM [rising, partial curve]	–
Cc1ccc(S(=O)(=O)n2ccc3c(OCCOCCSCC(NC(=O)OC(C)(C)C)C(=O)O)cccc32)cc1 (stereo unspecified)	35.5 µM [falling, single point]	–
CCOC(=O)C1CCCN(CC(=O)NC2=Nc3ccccc3N=C(C)C2c2ccccc2)C1 (stereo unspecified)	0.259 µM [rising, partial curve, poor fit]	–
CCc1nc(N2CCN(C(C)=O)CC2)c2c3c(sc2n1)CCCC3	12.6 µM [falling, partial curve]	–
COc1cc([N+](=O)[O-])cc2sc(NC(=O)c3c(F)cccc3F)nc12	6.31 µM [falling, partial curve, poor fit]	–
Cc1cccc(NC(=O)c2oc3ccc(S(=O)(=O)N(C)C4CCCCC4)cc3c2C)c1C	3.16 µM [falling, partial curve, poor fit]	–
Cc1ccccc1Cn1c(=O)n(CCC(=O)NCc2ccc3c(c2)OCO3)c(=O)c2ccccc21	6.51 µM [rising, single point]	–
CC(=O)NC1=NC(=O)/C(=C/c2cn(C(C)=O)nc2-c2ccccc2)S1	12.6 µM [falling, partial curve, poor fit]	–
NS(=O)(=O)c1ccc(CCNc2nc3c(-c4cccc(F)c4)nnn3c3ccccc23)cc1	1.16 µM [falling, full curve]	–
CCc1nn(CC(=O)NCCN2CCN(C)CC2)c(=O)c2cc3occc3n12	0.631 µM [falling, partial curve, poor fit]	–
NC(=S)N/N=C1\CCOc2ccc(F)cc21	12.6 µM [falling, partial curve]	35.5 µM [falling, single point]
COc1cc(/C=N/NC(=O)c2ccc(C)nc2)cc([N+](=O)[O-])c1O	1.78 µM [falling, partial curve]	–
CC(Oc1ccc2c(=O)c(-c3ccc(Cl)cc3)c(C(F)(F)F)oc2c1)C(=O)O (stereo unspecified)	3.55 µM [falling, partial curve, poor fit]	–
COC(=O)c1cc(C)sc1NC(=O)CCc1ccccc1	1 µM [rising, full curve, poor fit]	–
Cc1c(C(=O)NC2CCOC2)oc2c(F)cccc12 (stereo unspecified)	7.94 µM [rising, partial curve]	–
COc1cccc(NC(=S)/C(=C(\[O-])c2ccc(C)c([N+](=O)[O-])c2)[n+]2ccccc2)c1	1.16 µM [falling, full curve, poor fit]	–

Rewritten bar-delimited: part of the list above.
SMILES | AC50 [1] | AC50 [2]
O=C(c1ccco1)N1CCN(S(=O)(=O)c2ccc([N+](=O)[O-])cc2)CC1 | 6.31 µM [rising, single point] | –
Cc1ccc(S(=O)(=O)n2ccc3c(OCCOCCSCC(NC(=O)OC(C)(C)C)C(=O)O)cccc32)cc1 (stereo unspecified) | 35.5 µM [falling, single point] | –
CCOC(=O)C1CCCN(CC(=O)NC2=Nc3ccccc3N=C(C)C2c2ccccc2)C1 (stereo unspecified) | 0.259 µM [rising, partial curve, poor fit] | –
CCc1nc(N2CCN(C(C)=O)CC2)c2c3c(sc2n1)CCCC3 | 12.6 µM [falling, partial curve] | –

Later entries:

SMILES	AC50 [1]	AC50 [2]
Fc1ccccc1-c1csc(=Nc2cccnc2)n1CCCn1ccnc1	1.64 µM [falling, partial curve, poor fit]	–
CCOC(=O)CC(=O)Nc1nnc(C(C)C)s1	22.4 µM [falling, single point]	–
O=C(CCC(=O)c1ccc(F)cc1)Nc1cccnc1	6.51 µM [rising, single point]	–
COc1cc(NC(=O)c2cc([N+](=O)[O-])ccc2NC(=O)CNC2CCCCC2)cc(OC)c1	11.2 µM [falling, partial curve]	–
Clc1cccc(Cl)c1-c1nnc2ccc(N3CCOCC3)nn12	11.6 µM [falling, partial curve]	–
COc1ccc(/C(C)=N/N2CCCCC2)c(O)c1	14.1 µM [rising, single point]	–
CCOC(=O)c1c(C)c(C)n(Cc2ccc(OC)c(OC)c2)c1C	6.51 µM [rising, partial curve, poor fit]	–
Cc1cc(C(=O)COC(=O)Cc2ccc(Cl)cc2)c(C)n1C	0.00461 µM [rising, full curve, poor fit]	–
O=C1/C(=C\c2ccccn2)SC(=S)N1c1ccc(S(=O)(=O)Nc2nccs2)cc1	22.4 µM [falling, single point]	–
Cc1ccccc1N=C(NOCc1ccc(Cl)cc1Cl)c1nonc1N	18.4 µM [falling, single point]	–
COCCCNC(=O)C1CCCN(S(C)(=O)=O)C1 (stereo unspecified)	0.116 µM [falling, full curve]	–
COCCCNC(=S)N(CCCO)Cc1cc2cc3c(cc2[nH]c1=O)OCO3	7.94 µM [rising, partial curve, poor fit]	–
CCc1cc2c(Sc3nc4ccccc4s3)ncnc2s1	3.98 µM [falling, single point]	–
Cc1ccc(-n2c3c(c(O)c(-c4ccccc4)c2=O)C(=O)CC(C)(C)C3)cc1	23.1 µM [falling, partial curve, poor fit]	–
CC1(C)C[C@@H]2C[C@@](C)(CN2C(=O)c2cc(COc3cccc(C(F)(F)F)c3)on2)C1	17.8 µM [falling, partial curve, poor fit]	–
Cc1ccc(S(=O)(=O)N2CCN(C(=O)c3ccc4ccccc4n3)CC2)c(C)c1	1.46 µM [rising, full curve, poor fit]	–
COc1ccc(/C=N/NC(=S)Nc2cc(S(=O)(=O)N3CCOCC3)ccc2N2CCOCC2)cc1O	0.366 µM [rising, full curve]	–
COc1ccc(OCC(=O)Nc2ccccc2C(=O)NC2CC2)cc1	4.11 µM [rising, full curve, poor fit]	–
CCc1cc2c(=O)c(-c3ccc4c(c3)OCCO4)coc2c(CN2CCCCC2C)c1O (stereo unspecified)	8.91 µM [falling, partial curve, poor fit]	7.08 µM [rising, partial curve, poor fit]
Cc1ccc(OCCC(=O)Nc2ccc3c(c2)OCCCO3)cc1	0.259 µM [rising, partial curve]	–
CC(=O)Nc1ccc(C(=O)COC(=O)C2CCCCC2)c(F)c1	20.6 µM [rising, partial curve, poor fit]	–

SMILES	AC50 [1]	AC50 [2]
O=C(N/N=C/c1ccc([N+](=O)[O-])cc1)c1[nH]ncc1Br	1.41 µM [falling, full curve]	–
CCN(CC)C(=O)C1CCCc2c1[nH]c1ccc(Cl)cc21 (stereo unspecified)	7.31 µM [falling, full curve]	5.17 µM [rising, full curve, poor fit]
N/C(=N\OC(=O)CSc1ccccc1)c1ccncc1	0.447 µM [rising, full curve, poor fit]	–
Cc1ccnc(NC(=O)c2oc3ccccc3c2C)c1	18.4 µM [falling, single point]	–
CCN(CC)S(=O)(=O)c1ccc(C(=O)N2CCN(c3ncccn3)CC2)cc1	5.62 µM [rising, full curve, poor fit]	–
O=C1CC(c2ccccc2)=Nc2ccc(Br)cc2N1	11.2 µM [rising, partial curve]	–
CC(C)c1[nH]nc2c1C(C(C)C)C(C#N)=C(N)O2 (stereo unspecified)	20 µM [falling, single point]	–
CC1=NN(C(=O)c2ccc(C)cc2)C(O)(C(F)(F)OC(F)(F)F)C1 (stereo unspecified)	5.62 µM [falling, full curve]	–
Cc1cccc(C)c1NC(=O)CN(C)CC(=O)Nc1sc2c(c1C(N)=O)CCC2	0.58 µM [rising, full curve, poor fit]	–
COc1ccccc1NC(=O)c1c(C)oc2c1CCCC2	6.51 µM [rising, full curve]	–
CC(=O)Nc1ccc(-c2csc(NNC(=O)c3ccccc3)n2)cc1	12.6 µM [rising, partial curve, poor fit]	–
CNc1c(NS(=O)(=O)c2ccc(OC)c(Cl)c2)c(=O)oc2ccccc12	17.8 µM [rising, single point]	25.1 µM [falling, single point]
C=C1CCC[C@]2(C)C[C@H]3OC(=O)C(CN(Cc4ccc(OC)c(OC)c4)CC(C)O)[C@H]3CC12 (stereo partly specified)	10 µM [falling, partial curve, poor fit]	–
CN(C(=O)CCc1nc2ccccc2s1)c1ccccc1	16.4 µM [rising, single point]	–
CC(C)(C)c1cc[n+](-c2[nH]c(=O)sc2/C=N/NC(=O)c2ccccc2[O-])cc1	22.4 µM [falling, single point]	–
CCNC(=O)CC1S/C(=N/N=C(\C)c2ccccc2)NC1=O (stereo unspecified)	35.5 µM [rising, single point]	–
O=C(COc1ccc(Cl)cc1Cl)c1ccc[nH]1	0.794 µM [rising, full curve]	–
CN(Cc1cnn(C)c1)C(=O)C1CCC(=O)N(Cc2ccc(Cl)cc2)C1 (stereo unspecified)	35.5 µM [rising, partial curve, poor fit]	–
NS(=O)(=O)c1cccc(NC(=O)c2cccc(-c3ccc(O)cc3)c2)c1	28.2 µM [falling, single point]	–
CSc1nnc(SCc2nc3sc(C(=O)O)c(C)c3c(=O)[nH]2)s1	15.8 µM [falling, partial curve, poor fit]	–
